The other results are listed elsewhere or left out. Shown are side measurements of this screen, not its main read-out; they come without a call. Compounds called inactive in the main read-out are mostly missing here. The note in brackets gives the kind of curve behind each potency; many fits are weak.
Assay: qHTS Assay to Find Inhibitors of Chronic Active B-Cell Receptor Signaling
Settings: ABC-DLBCL IkBa-CBG/CBR reporter, luminescence ratio (green luciferase fused to IkBa over red control in TMD8 lymphoma cells), 4 h
Procedure, shortened: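 Doxycycline induced both beetle luciferases in TMD8 lymphoma cells; IKK-driven degradation limits the IkappaBalpha-fused green signal, while red luminescence normalises for cell number and nonspecific effects. Compounds tested up to 46 uM, 4 hrs.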

[1] = measured here: CBR red luminescence, cell number
[2] = measured here: IkBa-CBG green luminescence

| Structure (SMILES) | AC50 [1] | AC50 [2] |
| --- | --- | --- |
| CC(NC(=O)CN(C)Cc1ccc(Br)cc1)c1ccccc1 (stereo not drawn) | 35.5 µM [falling, single point] |  |
| CC(C)(C)OC(=O)NCCCCCNC(=O)c1[nH]cnc1C(=O)Nc1ccon1 | 2.31 µM [falling, partial curve, poor fit] | 0.92 µM [rising, full curve, poor fit] |
| CCc1ccc(CCC(=O)Nc2ccccc2C(=O)O)o1 | 2.51 µM [falling, full curve, poor fit] |  |
| CC(NC(=O)c1cccc(Cn2cc([N+](=O)[O-])cn2)c1)c1ccc(C(C)(C)C)cc1 (stereo not drawn) | 0.206 µM [falling, full curve, poor fit] |  |
| O=[N+]([O-])c1cccc2ccc(/C=C/c3ccc(C(F)(F)F)cc3)nc12 | 0.326 µM [rising, full curve, poor fit] |  |
| COc1ccc(NC(=S)Nc2cccc(C)n2)cc1 | 15.8 µM [rising, partial curve, poor fit] |  |
| CC(=O)N1CCN(CCN=CC2=C(O)CC(c3ccco3)CC2=O)CC1 (stereo not drawn) | 5.01 µM [rising, full curve, poor fit] |  |
| O=C(Nc1ccccn1)c1ccc(S(=O)(=O)N2CCCCC2)cc1 | 5.8 µM [falling, full curve] |  |
| CN1CCN(S(=O)(=O)c2cccc(S(=O)(=O)c3cccc(S(=O)(=O)N4CCN(C)CC4)c3)c2)CC1 | 29.1 µM [rising, single point] |  |
| CN1CCN(CCCNC(=O)c2cc3c(-c4ccc(Cl)cc4)nn(C)c3s2)CC1 | 23.1 µM [falling, single point] | 11.6 µM [rising, partial curve, poor fit] |
| COc1ccc(C2C(C(=O)NCc3ccccn3)CCC(=O)N2c2cc(OC)c(OC)c(OC)c2)cc1 (stereo not drawn) | 0.282 µM [rising, full curve, poor fit] |  |
| CCOC(=O)Cc1csc(NC(=O)Nc2ccc(C)cc2)n1 | 22.4 µM [falling, single point] |  |
| COc1ccc(/C=C/C(=O)c2ccccn2)cc1 | 28.2 µM [rising, single point] | 35.5 µM [falling, single point] |
| O=C(COc1ccccc1)N1CCc2ccccc2C1 | 29.1 µM [falling, single point] |  |
| Cc1ccc(CNC(=O)COC(=O)c2ccc(Cl)c(N)c2)cc1 | 16.4 µM [falling, partial curve, poor fit] |  |
| COc1ccc(-c2cc(C(F)(F)F)nc(SCC(=O)NCc3ccco3)n2)cc1OC | 0.0291 µM [rising, full curve, poor fit] |  |
| COc1cc(/C=N/O)cc(Br)c1OCc1ccc(Cl)cc1 | 31.6 µM [rising, single point] |  |
| CC(C)Sc1nnc(Nc2ccccc2)s1 | 3.98 µM [rising, partial curve, poor fit] |  |
| Cc1ccccc1C(=O)Nc1nnc(SCC(=O)NC2CC2)s1 | 2 µM [falling, partial curve, poor fit] |  |
| Cc1cccc(CC2S/C(=N/N=C/c3ccco3)N(c3ccccc3)C2=O)c1 (stereo not drawn) | 16.4 µM [rising, partial curve] |  |
| O=S(=O)(c1ccc(Br)cc1)c1cnc2ccccc2n1 | 11.2 µM [falling, partial curve] |  |

Arranged by molecular weight (largest number first): part of the list above.

| Structure (SMILES) | AC50 [1] | AC50 [2] |
| --- | --- | --- |
| CN1CCN(CCCNC(=O)c2cc3c(-c4ccc(Cl)cc4)nn(C)c3s2)CC1 | 23.1 µM [falling, single point] | 11.6 µM [rising, partial curve, poor fit] |
| CC(NC(=O)c1cccc(Cn2cc([N+](=O)[O-])cn2)c1)c1ccc(C(C)(C)C)cc1 (stereo not drawn) | 0.206 µM [falling, full curve, poor fit] |  |
| CCc1ccc(CCC(=O)Nc2ccccc2C(=O)O)o1 | 2.51 µM [falling, full curve, poor fit] |  |

(listing goes on)

| Structure (SMILES) | AC50 [1] | AC50 [2] |
| --- | --- | --- |
| Cc1ccc(S(=O)(=O)NCC(=O)NCC(=O)OCc2c(F)cccc2Cl)cc1 | 25.1 µM [falling, single point] |  |
| Cc1c(/C=N/NC(=O)c2ccc3c(c2)OCO3)cnn1C | 12.6 µM [falling, partial curve] |  |
| O=C(c1cc(-c2ccc(Cl)c(Cl)c2)on1)N1CCCCCC1 | 0.316 µM [rising, full curve, poor fit] |  |
| CCCNC(=S)Nc1ccc(CC(=O)OC)cc1 | 4.11 µM [rising, partial curve, poor fit] |  |
| COC(=O)Nc1ccc2c(c1)N(C(=O)CCCl)c1ccccc1S2 | 28.2 µM [falling, single point] |  |
| CCN(CC)CCN(C(=O)c1ccc(N2C(=O)CCC2=O)cc1)c1nc2cc3c(cc2s1)OCCO3 | 14.1 µM [falling, single point] |  |
| O=C(NC(NC(=S)Nc1ccccc1O)C(Cl)(Cl)Cl)c1ccco1 (stereo not drawn) | 29.1 µM [falling, single point] |  |
| COc1ccc(N2C(=O)CC(c3ccc([N+](=O)[O-])cc3)C2=O)cc1 (stereo not drawn) | 22.4 µM [rising, single point] |  |
| O=C(Nc1ccc(Cl)cc1)Nc1ccccc1CC[N+](=O)[O-] | 7.08 µM [falling, partial curve, poor fit] |  |
| CCCCc1cc(=O)oc2cc(O)cc(O)c12 | 35.5 µM [rising, single point] |  |
| Cc1ccc2nc(N3C(=O)C(O)=C(C(=O)c4ccco4)C3c3ccc(O)cc3)sc2c1 (stereo not drawn) | 0.355 µM [falling, full curve] |  |
| COc1ccc(OC)c(NC(=O)c2cc3n(n2)C(C(F)(F)F)CC(c2ccc4c(c2)OCO4)N3)c1 (stereo not drawn) | 20 µM [rising, partial curve, poor fit] |  |
| Cc1nnc(N(Cc2ccco2)C(=O)c2cccc(C#N)c2)s1 | 0.116 µM [falling, full curve, poor fit] |  |
| Cc1ccccc1-c1nc(CS(=O)(=O)CC(=O)NCc2ccco2)c(C)o1 | 11.2 µM [falling, partial curve, poor fit] |  |
| Cc1cc(C)nc(Sc2ccc([N+](=O)[O-])cc2[N+](=O)[O-])n1 | 23.1 µM [falling, single point] |  |
| Cc1ccc(Oc2ccc(S(=O)(=O)N3CCOCC3)cc2C(N)=O)c(-n2nc3ccccc3n2)c1 | 31.6 µM [rising, single point] | 17.8 µM [falling, single point] |
| CCC(C)c1ccc(NC(=O)Nc2cnccn2)cc1 (stereo not drawn) | 5.62 µM [rising, full curve] |  |
| COc1ccc(CCNc2nc3ccccc3n3cnnc23)cc1OC | 25.1 µM [falling, single point] |  |
| C[C@H](NC(=O)c1ccc2ccccc2c1)C(=O)N1CCC2(CC1)NCCc1[nH]cnc12 | 5.62 µM [rising, single point] |  |
| COc1ccc(NCN2C(=O)CCC2=O)cc1 | 0.164 µM [rising, full curve, poor fit] |  |
| O=C(Nc1ccccc1)ON=C1CCCC1 | 29.1 µM [falling, single point] |  |

| Structure (SMILES) | AC50 [1] | AC50 [2] |
| --- | --- | --- |
| COc1cc(C(=O)N/N=C/c2cc([N+](=O)[O-])cs2)cc(OC)c1OC | 18.4 µM [rising, partial curve] | 20.6 µM [falling, partial curve] |
| O=C1NN(c2ccccc2)C(=O)/C1=C\c1ccccc1 | 12.6 µM [falling, single point] |  |
| CCOC(=O)C(C)Oc1cccc2c(=O)n(CC(=O)NCc3ccco3)ccc12 (stereo not drawn) | 13 µM [rising, partial curve] | 8.2 µM [falling, partial curve] |
| CSCc1ccc(C(=O)NCc2ccccc2)cc1 | 25.9 µM [falling, single point] |  |
| O=S(=O)(NC1CCCC1)c1cccc(S(=O)(=O)N2CCC(n3nnc4ccccc43)CC2)c1 | 14.1 µM [falling, partial curve, poor fit] |  |
| Cc1ccc(S(=O)(=O)N2CCC(C(=O)OCC(=O)N3CC(=O)Nc4ccccc43)CC2)cc1 | 17.8 µM [rising, partial curve, poor fit] |  |
| COc1cc(NC(=O)c2cc(-c3ccccc3Cl)on2)cc(OC)c1OC | 35.5 µM [falling, single point] |  |
| Cc1ccc(-n2ncc3c(NCCc4ccccc4)ncnc32)cc1Cl | 2.51 µM [falling, partial curve, poor fit] |  |
| Cc1ccc(C)c(OCCCC(=O)N2CCOCC2)c1 | 0.316 µM [rising, full curve, poor fit] |  |
| O=C(CSc1nnc(CNC(=O)c2cccc(C(F)(F)F)c2)o1)NC1CCCCC1 | 3.16 µM [rising, single point] |  |
| Nc1c(C(=O)N2CCOCC2)sc2nc3c(cc12)CCCC3 | 11.2 µM [falling, single point] |  |
| CCc1ccc(Nc2nnc(SCC(=O)Nc3cccnc3Cl)s2)cc1 | 6.51 µM [falling, partial curve] |  |
| N#CC(C#N)=C1C=CC=CN1/C(=C\c1ccco1)C(=O)c1ccc(Cl)cc1 | 4.11 µM [falling, single point] |  |
| CCOc1ccc(C2C=C(c3ccc(F)cc3)Nc3ncnn32)cc1 (stereo not drawn) | 0.103 µM [rising, full curve, poor fit] |  |
| COc1ccc([N+](=O)[O-])cc1-n1cnnn1 | 12.6 µM [rising, partial curve, poor fit] |  |
| NS(=O)(=O)c1ccc(CCNC/C=C/c2ccccc2)cc1 | 6.31 µM [falling, partial curve, poor fit] |  |
| COc1ccc(C(=O)Nc2ccccc2)cc1NC(=O)c1ccc([N+](=O)[O-])cc1 | 22.4 µM [falling, single point] |  |
| O=C(NN1CCOCC1)c1ccc(Cl)c([N+](=O)[O-])c1 | 5.01 µM [falling, full curve, poor fit] |  |
| COc1ccc(-c2nc(-c3ccccc3)c(-c3cccs3)[nH]2)cc1OC | 25.9 µM [falling, single point] |  |
| COc1cccc(NC(=O)C2CCN(Cc3cnn(-c4ccccc4)c3-n3cccc3)CC2)c1 | 20.6 µM [falling, single point] |  |

From PubChem BioAssay AID493014 (National Center for Advancing Translational Sciences (NCATS), 2011)
